{
  "source": "paper PMC6327263",
  "about": "“Evaluation of Novel 3-Hydroxyflavone Analogues as HDAC Inhibitors against Colorectal Cancer” (Advances in Pharmacological Sciences, 2018)",
  "key": {"VERO cells": {"test_system": "VERO cells", "test": "MTT cytotoxicity assay, Vero", "assay_type": "cell-based, African green monkey", "details": "48 h, mean ± SEM of three experiments", "protocol": "(§1) Human colorectal carcinoma cell line (HCT116) and African green monkey kidney epithelial cells (VERO) were obtained from National Centre for Cell Science, Pune, MH, India. For their maintenance, the cells were grown in Dulbecco's Modified Eagle's Medium (DMEM) which was supplemented with 10% fetal bovine serum (FBS) and 1 × penicillin/streptomycin at 37°C in CO2 incubator (NU-5501E/G, NuAire Inc., Plymouth, MN, USA) in a humidified atmosphere of 5% CO2 and 95% air.\n(§2) Cytotoxicity for the synthesized analogues was determined using MTT assay. In brief, HCT116 and VERO cells were harvested from the tissue culture flask and seeded in sterile 96 well plates at a density of 5000 cells per well. After overnight adherence, different concentrations of test compounds were added and incubated for 48 h. Next, 50 µl of the MTT reagent (HiMedia Laboratories, Mumbai, India) (2 mg/ml in the sterile phosphate buffer saline (PBS)) was added into each well and incubated for 3 h. The formazan crystals formed were solubilized using 100% dimethyl sulfoxide (DMSO), and the optical density was measured at 540 nm using the microplate reader (ELx800, BioTek Instruments Inc., Winooski, VT, USA)."}, "[1]": {"test_system": "HDAC enzyme in HCT116 cells", "test": "Whole cell HDAC inhibition assay", "assay_type": "cell-based, human", "details": "HCT116, 18 h treatment, mean ± SEM of three experiments", "protocol": "Confluent HCT116 cells were harvested and seeded in 96 well sterile black well plates at a density of 2000 cells per well and incubated overnight. Furthermore, the cells were treated with different concentrations of test compounds for a period of 18 h followed by the addition of […] BOC-Ac-Lys-AMC substrate and incubated for 1 h. […] The reaction was then allowed to proceed for 15 min at 37°C. Finally, the fluorescence intensity was measured at 360 nm excitation and 460 nm emission using a fluorescence microplate reader (FLx800, BioTek Instruments Inc., Winooski, VT, USA)."}, "HCT116 cells": {"test_system": "HCT116 cells", "test": "MTT cytotoxicity assay, HCT116", "assay_type": "cell-based, human", "details": "48 h, mean ± SEM of three experiments", "protocol": "as §1, §2"}},
  "data": [
    {"smiles": "O=C(CCCCCCC(=O)Nc1ccccc1)NO", "note": "[SAHA, reference compound]", "values": [
      {"measurement": "IC50", "setting": "VERO cells", "result": "4.6 ± 1.6", "unit": "µM"},
      {"measurement": "IC50", "setting": "[1]", "result": "1.2 ± 0.1", "unit": "µM"},
      {"measurement": "IC50", "setting": "HCT116 cells", "result": "3.1 ± 0.35", "unit": "µM"}
    ]}
  ]
}
